Measurements taken from the supplement of paper PMC10849652.
The other results are listed elsewhere or left out.

Protein sequences, listed by entry. Tags and fused reporters are not part of them. Lines headed by an entry give the natural chain unless they say otherwise; changes in a name come on top.
UniProt P35716: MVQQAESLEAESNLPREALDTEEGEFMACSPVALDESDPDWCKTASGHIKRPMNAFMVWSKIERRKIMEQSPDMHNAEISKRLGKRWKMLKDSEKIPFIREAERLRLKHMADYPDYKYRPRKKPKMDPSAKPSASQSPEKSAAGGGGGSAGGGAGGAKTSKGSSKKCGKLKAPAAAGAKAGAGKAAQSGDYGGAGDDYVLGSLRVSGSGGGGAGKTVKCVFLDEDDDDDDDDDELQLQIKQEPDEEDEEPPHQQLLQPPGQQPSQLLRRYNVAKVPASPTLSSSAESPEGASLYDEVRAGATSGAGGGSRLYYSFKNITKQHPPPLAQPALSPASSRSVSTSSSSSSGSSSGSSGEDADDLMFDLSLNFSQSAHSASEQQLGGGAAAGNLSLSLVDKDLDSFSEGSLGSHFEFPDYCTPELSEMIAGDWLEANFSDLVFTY
UniProt Q53HV7: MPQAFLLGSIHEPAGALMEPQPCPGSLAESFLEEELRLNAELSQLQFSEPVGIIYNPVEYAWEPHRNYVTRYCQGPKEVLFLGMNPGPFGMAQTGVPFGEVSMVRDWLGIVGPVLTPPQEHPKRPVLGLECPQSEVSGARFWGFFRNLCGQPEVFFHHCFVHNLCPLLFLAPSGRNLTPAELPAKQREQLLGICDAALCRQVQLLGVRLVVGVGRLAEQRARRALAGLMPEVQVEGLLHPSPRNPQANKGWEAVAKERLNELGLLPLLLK
UniProt Q8WVI0: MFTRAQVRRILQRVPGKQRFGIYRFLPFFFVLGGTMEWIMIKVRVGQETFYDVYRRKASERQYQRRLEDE
UniProt B2RUZ4: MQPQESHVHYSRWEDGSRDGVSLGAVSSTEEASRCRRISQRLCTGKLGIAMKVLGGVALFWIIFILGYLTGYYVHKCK
UniProt Q5SXM2: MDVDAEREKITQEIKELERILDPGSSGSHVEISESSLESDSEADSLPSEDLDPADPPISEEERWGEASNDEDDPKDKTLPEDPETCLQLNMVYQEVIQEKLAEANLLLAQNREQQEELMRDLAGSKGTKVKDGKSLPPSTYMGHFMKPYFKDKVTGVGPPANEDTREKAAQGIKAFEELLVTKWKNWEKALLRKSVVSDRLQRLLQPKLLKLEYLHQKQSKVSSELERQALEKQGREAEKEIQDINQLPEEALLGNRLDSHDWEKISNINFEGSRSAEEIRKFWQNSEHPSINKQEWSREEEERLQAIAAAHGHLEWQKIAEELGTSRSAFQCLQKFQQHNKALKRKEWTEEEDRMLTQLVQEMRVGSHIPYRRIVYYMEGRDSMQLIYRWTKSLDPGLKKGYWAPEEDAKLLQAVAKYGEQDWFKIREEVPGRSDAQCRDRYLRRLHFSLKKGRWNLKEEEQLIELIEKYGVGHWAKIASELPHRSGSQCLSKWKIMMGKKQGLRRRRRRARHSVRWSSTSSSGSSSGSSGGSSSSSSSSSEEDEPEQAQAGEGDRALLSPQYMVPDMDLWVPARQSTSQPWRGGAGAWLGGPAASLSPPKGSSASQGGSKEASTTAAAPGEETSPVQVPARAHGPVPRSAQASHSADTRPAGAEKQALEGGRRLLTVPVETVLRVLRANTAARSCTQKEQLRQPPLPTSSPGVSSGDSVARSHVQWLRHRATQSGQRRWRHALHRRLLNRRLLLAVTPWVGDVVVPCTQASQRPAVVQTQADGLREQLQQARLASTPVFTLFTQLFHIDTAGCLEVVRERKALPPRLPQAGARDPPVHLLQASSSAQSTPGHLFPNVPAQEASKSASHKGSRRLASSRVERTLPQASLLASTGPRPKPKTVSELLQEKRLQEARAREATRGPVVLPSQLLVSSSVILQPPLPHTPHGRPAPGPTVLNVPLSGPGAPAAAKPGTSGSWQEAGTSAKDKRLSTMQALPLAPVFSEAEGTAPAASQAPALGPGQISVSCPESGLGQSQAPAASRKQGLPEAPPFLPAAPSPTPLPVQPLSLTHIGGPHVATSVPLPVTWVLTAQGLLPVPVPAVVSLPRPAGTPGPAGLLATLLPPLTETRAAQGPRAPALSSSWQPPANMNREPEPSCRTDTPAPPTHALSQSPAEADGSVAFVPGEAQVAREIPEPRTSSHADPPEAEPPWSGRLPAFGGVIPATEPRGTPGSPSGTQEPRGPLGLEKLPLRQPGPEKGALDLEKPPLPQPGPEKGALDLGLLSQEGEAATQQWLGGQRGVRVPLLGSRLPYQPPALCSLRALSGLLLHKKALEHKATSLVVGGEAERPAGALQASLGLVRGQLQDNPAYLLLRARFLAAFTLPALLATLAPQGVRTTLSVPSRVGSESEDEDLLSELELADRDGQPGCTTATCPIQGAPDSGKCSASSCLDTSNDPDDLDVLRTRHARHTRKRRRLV
UniProt P18583: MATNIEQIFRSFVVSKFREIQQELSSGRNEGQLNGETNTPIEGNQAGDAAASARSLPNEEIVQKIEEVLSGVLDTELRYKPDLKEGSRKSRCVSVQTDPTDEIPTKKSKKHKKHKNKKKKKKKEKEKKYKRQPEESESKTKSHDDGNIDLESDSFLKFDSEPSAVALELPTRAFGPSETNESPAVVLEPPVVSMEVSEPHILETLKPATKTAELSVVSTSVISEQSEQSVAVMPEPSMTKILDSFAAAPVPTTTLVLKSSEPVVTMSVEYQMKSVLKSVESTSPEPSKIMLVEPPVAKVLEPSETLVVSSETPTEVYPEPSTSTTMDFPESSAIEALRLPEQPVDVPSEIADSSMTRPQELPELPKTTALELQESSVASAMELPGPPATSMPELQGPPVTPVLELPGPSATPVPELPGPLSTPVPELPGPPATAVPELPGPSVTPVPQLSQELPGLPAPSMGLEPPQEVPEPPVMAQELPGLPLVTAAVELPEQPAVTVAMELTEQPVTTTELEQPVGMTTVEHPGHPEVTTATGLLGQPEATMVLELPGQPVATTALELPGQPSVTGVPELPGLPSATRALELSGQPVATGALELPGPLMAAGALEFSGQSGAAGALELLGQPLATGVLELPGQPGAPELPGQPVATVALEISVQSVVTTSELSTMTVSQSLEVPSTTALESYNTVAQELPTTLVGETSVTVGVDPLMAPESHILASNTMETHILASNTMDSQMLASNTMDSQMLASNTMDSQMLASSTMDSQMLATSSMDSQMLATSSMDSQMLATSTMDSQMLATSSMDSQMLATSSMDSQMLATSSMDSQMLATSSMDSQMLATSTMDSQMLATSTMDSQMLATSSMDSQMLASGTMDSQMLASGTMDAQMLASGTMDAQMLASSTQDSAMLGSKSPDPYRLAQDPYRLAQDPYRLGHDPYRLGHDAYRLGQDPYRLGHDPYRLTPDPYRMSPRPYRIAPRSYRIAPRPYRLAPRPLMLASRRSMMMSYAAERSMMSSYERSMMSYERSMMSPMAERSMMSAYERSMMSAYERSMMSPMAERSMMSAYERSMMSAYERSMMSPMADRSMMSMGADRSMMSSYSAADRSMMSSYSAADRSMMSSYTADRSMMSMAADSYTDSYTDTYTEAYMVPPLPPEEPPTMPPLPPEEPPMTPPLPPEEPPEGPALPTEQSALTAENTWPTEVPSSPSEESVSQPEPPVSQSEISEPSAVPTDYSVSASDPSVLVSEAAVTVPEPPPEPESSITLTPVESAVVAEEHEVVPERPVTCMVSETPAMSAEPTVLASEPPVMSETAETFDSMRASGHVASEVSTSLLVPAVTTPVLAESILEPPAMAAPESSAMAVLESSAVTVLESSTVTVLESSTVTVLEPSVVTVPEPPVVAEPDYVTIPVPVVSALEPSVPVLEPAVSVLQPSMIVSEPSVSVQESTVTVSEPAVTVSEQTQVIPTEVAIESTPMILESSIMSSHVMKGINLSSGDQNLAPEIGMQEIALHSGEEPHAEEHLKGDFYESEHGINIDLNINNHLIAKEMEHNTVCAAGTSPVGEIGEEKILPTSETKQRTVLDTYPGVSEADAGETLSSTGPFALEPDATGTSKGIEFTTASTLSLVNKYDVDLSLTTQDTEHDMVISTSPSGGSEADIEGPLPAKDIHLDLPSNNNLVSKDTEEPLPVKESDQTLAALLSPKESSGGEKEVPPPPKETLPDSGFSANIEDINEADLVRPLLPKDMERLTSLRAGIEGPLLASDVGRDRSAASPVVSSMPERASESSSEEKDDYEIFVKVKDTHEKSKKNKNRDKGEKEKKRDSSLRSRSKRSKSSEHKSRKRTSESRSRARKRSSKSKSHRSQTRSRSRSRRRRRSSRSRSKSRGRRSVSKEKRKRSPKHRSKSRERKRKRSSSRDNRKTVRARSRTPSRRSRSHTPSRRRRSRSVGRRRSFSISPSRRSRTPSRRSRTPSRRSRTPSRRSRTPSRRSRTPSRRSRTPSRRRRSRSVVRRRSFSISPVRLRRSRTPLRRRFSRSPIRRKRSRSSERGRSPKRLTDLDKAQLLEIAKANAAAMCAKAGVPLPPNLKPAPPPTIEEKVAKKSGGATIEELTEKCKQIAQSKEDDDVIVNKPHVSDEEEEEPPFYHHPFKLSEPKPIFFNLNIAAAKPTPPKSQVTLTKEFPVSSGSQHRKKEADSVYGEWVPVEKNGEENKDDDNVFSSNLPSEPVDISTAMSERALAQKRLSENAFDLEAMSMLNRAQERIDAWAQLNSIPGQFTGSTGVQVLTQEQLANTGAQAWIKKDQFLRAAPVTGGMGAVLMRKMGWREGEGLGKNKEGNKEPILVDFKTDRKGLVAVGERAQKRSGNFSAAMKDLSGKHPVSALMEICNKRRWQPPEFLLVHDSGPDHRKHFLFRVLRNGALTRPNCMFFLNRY
UniProt Q8IYR2: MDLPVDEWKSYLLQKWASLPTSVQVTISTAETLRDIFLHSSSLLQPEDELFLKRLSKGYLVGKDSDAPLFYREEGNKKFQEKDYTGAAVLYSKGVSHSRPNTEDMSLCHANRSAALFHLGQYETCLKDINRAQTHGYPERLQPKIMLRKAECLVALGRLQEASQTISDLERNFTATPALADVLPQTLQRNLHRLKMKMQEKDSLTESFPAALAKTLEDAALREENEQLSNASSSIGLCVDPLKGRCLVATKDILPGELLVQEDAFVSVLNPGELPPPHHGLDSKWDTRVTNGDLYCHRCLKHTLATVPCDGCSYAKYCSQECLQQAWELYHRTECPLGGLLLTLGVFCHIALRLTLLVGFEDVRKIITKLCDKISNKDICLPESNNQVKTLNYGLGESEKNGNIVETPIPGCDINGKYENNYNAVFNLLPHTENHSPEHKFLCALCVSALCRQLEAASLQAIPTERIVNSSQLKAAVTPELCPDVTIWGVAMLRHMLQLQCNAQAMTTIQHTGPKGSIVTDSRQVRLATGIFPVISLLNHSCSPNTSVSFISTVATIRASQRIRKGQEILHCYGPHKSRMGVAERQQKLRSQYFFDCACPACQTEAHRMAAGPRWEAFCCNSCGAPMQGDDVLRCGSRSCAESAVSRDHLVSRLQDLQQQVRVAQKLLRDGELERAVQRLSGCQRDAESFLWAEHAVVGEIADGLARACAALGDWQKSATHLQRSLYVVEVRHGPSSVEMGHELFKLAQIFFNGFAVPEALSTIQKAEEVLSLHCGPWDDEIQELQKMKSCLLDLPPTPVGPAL
UniProt P17405: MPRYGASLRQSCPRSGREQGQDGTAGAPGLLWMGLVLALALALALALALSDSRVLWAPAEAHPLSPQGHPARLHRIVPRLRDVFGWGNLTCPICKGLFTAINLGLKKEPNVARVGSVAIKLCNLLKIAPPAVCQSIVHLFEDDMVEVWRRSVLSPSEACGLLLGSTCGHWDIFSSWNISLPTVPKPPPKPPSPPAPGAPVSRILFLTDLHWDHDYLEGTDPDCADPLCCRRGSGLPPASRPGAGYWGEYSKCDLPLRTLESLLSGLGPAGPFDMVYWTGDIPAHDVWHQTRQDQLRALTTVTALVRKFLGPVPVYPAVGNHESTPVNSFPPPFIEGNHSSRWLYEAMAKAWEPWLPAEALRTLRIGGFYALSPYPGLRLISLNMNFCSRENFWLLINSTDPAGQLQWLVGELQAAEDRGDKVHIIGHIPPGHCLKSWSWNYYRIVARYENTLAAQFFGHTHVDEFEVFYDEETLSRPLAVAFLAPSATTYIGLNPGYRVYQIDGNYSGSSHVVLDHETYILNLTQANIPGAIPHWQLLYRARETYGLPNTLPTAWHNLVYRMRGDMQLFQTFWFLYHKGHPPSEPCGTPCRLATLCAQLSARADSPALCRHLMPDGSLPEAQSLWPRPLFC
UniProt P0DJ93: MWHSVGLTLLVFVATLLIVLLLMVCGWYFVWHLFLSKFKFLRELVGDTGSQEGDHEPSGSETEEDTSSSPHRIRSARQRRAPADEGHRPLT
UniProt O15370: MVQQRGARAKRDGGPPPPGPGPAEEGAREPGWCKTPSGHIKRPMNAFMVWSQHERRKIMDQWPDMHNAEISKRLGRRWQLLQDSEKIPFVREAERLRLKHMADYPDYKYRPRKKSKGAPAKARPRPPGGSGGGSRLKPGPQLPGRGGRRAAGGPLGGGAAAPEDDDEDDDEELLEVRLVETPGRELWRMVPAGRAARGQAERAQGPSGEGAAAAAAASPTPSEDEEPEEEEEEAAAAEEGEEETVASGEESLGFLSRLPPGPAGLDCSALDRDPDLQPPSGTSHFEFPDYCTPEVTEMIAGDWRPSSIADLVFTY

Key:
Test in all cases: log2 fold change, soluble protein after heating vs DMSO (PISA); higher = thermal stabilisation; K562 lysate, 10 uM; active = over 0.2 and 3.5 SD of the protein, either way, in both replicates (recomputed)
[1] = compound: CS(=O)(=O)CCNCc1ccc(-c2ccc3ncnc(Nc4ccc(OCc5cccc(F)c5)c(Cl)c4)c3c2)o1 [lapatinib]
Outline: (§1)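 Quantification was by TMTpro 16plex LC-MS/MS with equalised channel sums, applied to the supernatant after 21,000xg for 90 min. Samples were crude K562 extract at 1 mg/mL protein in PBS pH 7.4 with 1 mM MgCl2, treated with 10 μM compound for 30 min, heated for 3 min across 48°C-58°C, pooled and brought to 0.5% NP-40 at 4°C. Values are log-two fold changes in thermal stability relative to solvent controls, from duplicates.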

[2] = compound: C[C@@H](Oc1cc(-c2cnn(C3CCNCC3)c2)cnc1N)c1c(Cl)ccc(F)c1Cl [crizotinib]
Outline: as §1

[3] = compound: Cc1ccc(-n2nc(C(C)(C)C)cc2NC(=O)Nc2ccc(OCCN3CCOCC3)c3ccccc23)cc1 [doramapimod]
Outline: as §1

[4] = compound: Cn1cc(CNCC2CCN(c3ncc(C(=O)NO)cn3)CC2)c2ccccc21 [quisinostat]
Outline: as §1

[5] = compound: NC(=O)Nc1cc(-c2cccc(F)c2)sc1C(=O)N[C@H]1CCCNC1
Outline: as §1

[6] = compound: NC(=O)c1cnc(N[C@@H]2CCCC[C@@H]2N)nc1Nc1cccc(-n2nccn2)c1
Outline: as §1

[7] = compound: Cc1cc(Nc2cc(N3CCN(C)CC3)nc(Sc3ccc(NC(=O)C4CC4)cc3)n2)n[nH]1 [tozasertib]
Outline: as §1

[8] = compound: CS(=O)(=O)N1CCN(Cc2cc3nc(-c4cccc5[nH]ncc45)nc(N4CCOCC4)c3s2)CC1 [pictilisib]
Outline: as §1

[9] = compound: C[C@H](C1=CC=C(C=C1)C(=O)NC2=C3C=CNC3=NC=C2)N
Outline: as §1

[10] = compound: C[C@H](Nc1ncnc2nc[nH]c12)c1cc2cccc(Cl)c2c(=O)n1-c1ccccc1 [duvelisib]
Outline: as §1

[11] = compound: Cc1cc(Nc2cc(CN3CCOCC3)c3nc(C)c(Cc4ccc(Cl)cc4F)n3n2)n[nH]1 [gandotinib]
Outline: as §1

[12] = compound: Cc1ccc(NC(=O)c2ccc(CN3CC[C@H](N(C)C)C3)c(C(F)(F)F)c2)cc1Nc1nccc(-c2cncnc2)n1 [bafetinib]
Outline: as §1

[13] = compound: Cc1cccc(CC(=O)N2CCc3c2ccc(-c2cn(C)c4ncnc(N)c24)c3F)n1
Outline: as §1

[14] = compound: Cc1cn(-c2cc(NC(=O)c3ccc(C)c(Nc4nccc(-c5cccnc5)n4)c3)cc(C(F)(F)F)c2)cn1 [nilotinib]
Outline: as §1

[15] = compound: Cc1nc(Nc2n[nH]c3c2CN(C(=O)N[C@H](CN(C)C)c2ccccc2)C3(C)C)c2sccc2n1
Outline: as §1

[16] = compound: Cc1nc(Nc2ncc(C(=O)Nc3c(C)cccc3Cl)s2)cc(N2CCN(CCO)CC2)n1 [dasatinib]
Outline: as §1

[17] = compound: Cc1ncc(-c2ccnc(Nc3ccc(S(C)(=O)=O)cc3)n2)n1C(C)C
Outline: as §1

[18] = compound: Cn1cc(-c2ccc3c(c2)CCN3C(=O)Cc2cccc(C(F)(F)F)c2)c2c(N)ncnc21
Outline: as §1

[19] = compound: Cn1cncc1[C@@](N)(c1ccc(Cl)cc1)c1ccc2c(c1)c(-c1cccc(Cl)c1)cc(=O)n2C [tipifarnib]
Outline: as §1

[20] = compound: NC1(c2ccc(-c3nc4ccn5c(=O)[nH]nc5c4cc3-c3ccccc3)cc2)CCC1
Outline: as §1

Measured: log2 fold change

SOX11 (UniProt P35716)
inactive: [1] -0.118 | [2] 0.006 | [3] -0.243 | [4] -0.011 | [5] -0.154 | [6] -0.217

SMPDL3A (UniProt Q92484)
inactive: [1] 0.058 | [7] -0.057 | [6] -0.012

SMUG1 (UniProt Q53HV7)
inactive: [1] -0.072 | [8] -0.068 | [9] 0.038 | [10] -0.014 | [11] 0.076 | [7] 0.046 | [12] 0.023 | [13] -0.046 | [14] -0.031 | [15] 0.003 | [16] 0.051 | [17] -0.064 | [18] -0.018 | [19] -0.05 | [6] 0.03 | [20] 0.001

Two records drawn at random from those above:
SMPDL3A (UniProt Q92484)
inactive: [1] 0.058 | [7] -0.057 | [6] -0.012

SMUG1 (UniProt Q53HV7)
inactive: [1] -0.072 | [8] -0.068 | [9] 0.038 | [10] -0.014 | [11] 0.076 | [7] 0.046 | [12] 0.023 | [13] -0.046 | [14] -0.031 | [15] 0.003 | [16] 0.051 | [17] -0.064 | [18] -0.018 | [19] -0.05 | [6] 0.03 | [20] 0.001

The list goes on:

SNX24 (UniProt Q9Y343)
inactive: [8] -0.142 | [2] 0.006 | [9] -0.01 | [10] -0.052 | [11] -0.045 | [7] -0.006 | [3] 0.047 | [12] -0.061 | [13] 0.075 | [14] -0.031 | [15] -0.028 | [16] 0.003 | [17] -0.041 | [18] -0.027 | [4] 0.128 | [19] -0.017 | [5] -0.025 | [20] 0.028

SNX4 (UniProt O95219)
inactive: [8] 0.019 | [2] -0.013 | [9] -0.003 | [10] -0.085 | [11] -0.029 | [7] 0.001 | [3] 0.054 | [12] 0.009 | [13] 0.005 | [14] 0.066 | [15] -0.047 | [16] -0.012 | [17] -0.004 | [18] 0.033 | [4] 0.065 | [19] 0.07 | [5] -0.027 | [20] 0.048

SMIM4 (UniProt Q8WVI0)
inactive: [1] 0.132 | [8] -0.016 | [2] 0.043 | [9] -0.17 | [11] -0.121 | [3] 0.096 | [12] 0.632 | [13] 0.278 | [14] 0.079 | [15] 0.089 | [17] -0.048 | [4] -0.039 | [19] 0.063 | [5] -0.043 | [6] 0.175

SMIM15 (UniProt Q7Z3B0)
inactive: [1] -0.042 | [2] 0.036 | [9] -0.042 | [10] 0.063 | [11] 0.019 | [7] -0.039 | [3] -0.041 | [13] -0.044 | [14] 0.109 | [15] -0.15 | [16] -0.037 | [17] 0.065 | [18] -0.199 | [4] 0.017 | [19] -0.078 | [5] 0.036 | [6] -0.025 | [20] -0.027

SNRPD2 (UniProt K7EJB5)
inactive: [1] 0.005 | [2] -0.202 | [10] 0.014 | [7] 0.051 | [3] 0.105 | [14] -0.081 | [15] 0.005 | [16] -0.026 | [17] -0.094 | [18] -0.084 | [4] -0.267 | [19] -0.075 | [5] -0.082 | [6] 0.044 | [20] 0

SMIM1 (UniProt B2RUZ4)
inactive: [1] 0.098 | [8] -0.028 | [2] -0.106 | [9] 0.121 | [11] 0.106 | [7] -0.019 | [3] 0.034 | [12] -0.021 | [13] 0.011 | [14] 0.056 | [15] 0.05 | [17] 0.195 | [4] 0.168 | [19] 0.039 | [5] -0.055 | [6] -0.188
active: [20] -0.418

SNAPC4 (UniProt Q5SXM2)
inactive: [8] -0.054 | [9] 0.002 | [11] -0.109 | [7] 0.012 | [12] -0.022 | [13] 0.041 | [14] 0.05 | [15] -0.086 | [17] 0.002 | [19] -0.063

SMC4 (UniProt C9JJ64)
inactive: [8] 0.006 | [12] -0.251

SON isoform 6 (UniProt P18583)
inactive: [14] -0.091 | [15] -0.186 | [17] 0.154 | [19] 0.06

SMPD4 isoform 4 (UniProt Q9NXE4)
inactive: [8] -0.038 | [9] 0.067 | [11] -0.146 | [7] 0.057 | [12] -0.079 | [13] -0.062 | [14] 0.165 | [15] -0.308 | [17] -0.121 | [19] -0.072

SPANXB1 (UniProt Q9NS25)
inactive: [9] 0.098 | [11] -0.34 | [13] 0.336

SP2 (UniProt Q02086)
inactive: [8] -0.182 | [2] -0.192 | [10] 0.032 | [7] -0.04 | [3] -0.046 | [12] 0.016 | [14] 0.15 | [15] -0.053 | [16] -0.183 | [17] 0.04 | [18] 0.149 | [4] 0.067 | [19] 0.029 | [5] 0.089

SMYD4 (UniProt Q8IYR2)
inactive: [2] -0.116 | [9] -0.075 | [10] 0.026 | [11] 0.024 | [3] -0.121 | [13] 0.144 | [16] -0.472 | [18] -0.04 | [4] -0.271 | [5] 0.027 | [20] 0.211

SMPD1 (UniProt P17405)
inactive: [8] -0.13 | [2] 0.109 | [10] 0.111 | [3] -0.024 | [12] 0 | [14] 0.063 | [15] -0.209 | [16] -0.04 | [17] -0.1 | [18] 0.068 | [4] 0.127 | [19] 0.047 | [5] -0.048 | [20] -0.013

SMIM13 (UniProt P0DJ93)
inactive: [2] 0.029 | [3] -0.035 | [4] 0.106 | [5] -0.002 | [20] 0.113

SOSTDC1 isoform 2 (UniProt Q6X4U4)
inactive: [10] -0.086 | [16] 0.172 | [18] -0.129

SOX12 (UniProt O15370)
inactive: [8] -0.009 | [2] 0.043 | [9] -0.03 | [10] -0.073 | [11] 0.282 | [3] 0.012 | [12] -0.055 | [13] -0.003 | [16] -0.073 | [18] -0.246 | [4] -0.012 | [5] -0.059

SNX29 (UniProt Q8TEQ0)
inactive: [2] -0.205 | [9] 0.206 | [11] -0.055 | [7] 0.088 | [3] 0.012 | [13] 0.131 | [14] -0.041 | [15] 0.056 | [17] 0.093 | [4] -0.142 | [19] -0.11 | [5] 0.129 | [20] 0.042
